Source: PubChem BioAssay (EPA / NIEHS)
Values joined by “and” are separate entries in the source; they are usually repeats but may differ in a detail not shown here. Identical values can stand only once. This list was built around the results that the source calls inconclusive (neither active nor inactive); the mix of calls is not that of the screen. A potency beside an inconclusive call is a rough fit, not a confirmed value. Active and inactive are the calls of the source. How the source made its calls: active means hit-call score of the fitted dose curve at least 0.9, where 1 is the maximum; inconclusive means response in the unintended direction; inactive means score below 0.9.

Protein sequences, listed by entry. Tags and fused reporters are not part of them.
UniProt P04637, whole entry, looked up: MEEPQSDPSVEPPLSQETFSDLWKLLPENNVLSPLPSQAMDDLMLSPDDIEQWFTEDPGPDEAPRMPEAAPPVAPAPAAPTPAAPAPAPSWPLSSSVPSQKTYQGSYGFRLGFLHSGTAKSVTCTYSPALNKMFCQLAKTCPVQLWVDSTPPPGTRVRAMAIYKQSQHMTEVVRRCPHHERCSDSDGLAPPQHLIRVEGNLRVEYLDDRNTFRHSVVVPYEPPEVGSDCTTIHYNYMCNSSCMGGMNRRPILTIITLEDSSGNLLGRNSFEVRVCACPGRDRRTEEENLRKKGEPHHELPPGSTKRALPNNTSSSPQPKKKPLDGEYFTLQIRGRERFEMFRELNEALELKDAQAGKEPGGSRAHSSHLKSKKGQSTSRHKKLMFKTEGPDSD

Biological target: Cellular tumor antigen p53 (Homo sapiens) (UniProt P04637)
Test: TOX21_p53_BLA_p4_ratio: Tox21 HCT-116 p53 Agonism Beta-lactamase Assay, Ratio, Phase 4 (AID 2283601)
Summary of the method: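 Signal is the blue/green (460nm/530nm) ratio of cleaved versus uncleaved CCF4-AM substrate, read after 2 h substrate loading. Cells were HCT116 carrying the p53-responsive beta-lactamase reporter, dosed 16 h at 37C, 5% CO2; CellTiter-Glo measured in parallel.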

| Structure (SMILES) | AC50 | outcome |
| --- | --- | --- |
| CC(CN1CC(=O)NC(=O)C1)N1CC(=O)NC(=O)C1 (stereo not drawn) | active: 8.89 µM |  |
| CCCCC(CC)COC(=O)C=Cc1ccc(OC)cc1 (stereo not drawn) | inconclusive: 45.9 µM and inconclusive: 23 µM |  |
| BrCCCCCBr |  | inactive |
| Cl[Si](Cl)(c1ccccc1)c1ccccc1 | inconclusive: 47 µM |  |
| CNC(=O)c1ccccc1Sc1ccc2c(/C=C/c3ccccn3)n[nH]c2c1 | active: 0.738 µM |  |
| O=C(O)CN(CC(=O)O)CC1=CC2C(=CC1=O)Oc1cc(O)c(CN(CC(=O)O)CC(=O)O)cc1C21OC(=O)c2ccccc21 (stereo not drawn) | inconclusive: 21.9 µM |  |
| O=c1[nH]c2ccccc2n1CCCN1CCN(C(c2ccccc2)c2ccccc2)CC1 | inconclusive: 23 µM |  |
| Nc1nc2ccc(OC(F)(F)F)cc2s1 | active: 11.3 µM |  |
| O=c1n(CCCN2CCN(c3cccc(Cl)c3)CC2)nc2ccccn12 | inconclusive: 46.1 µM |  |
| CCC(=O)OCC(=O)[C@@]1(OC(=O)CC)[C@H](C)C[C@H]2[C@@H]3CCC4=CC(=O)C=C[C@]4(C)[C@@]3(F)[C@@H](O)C[C@@]21C | inconclusive: 36.9 µM |  |
| CN1CCCN=C1/C=C/c1cccs1 | inconclusive: 23 µM |  |
| Cc1ccc(NC(=O)N(C)C)cc1NC(=O)N(C)C | inconclusive: 46.1 µM |  |
| CCCCCCCCCCCCCCCCCCCCCC(=O)Nc1ccn([C@@H]2O[C@H](CO)[C@@H](O)[C@@H]2O)c(=O)n1 | active: 14.3 µM |  |
| NC(=O)NC(=O)Cc1ccccc1 |  | inactive |
| CN(C)c1cc(NC(=O)CNC(C)(C)C)c(O)c2c1C[C@H]1C[C@H]3[C@H](N(C)C)C(=O)C(C(N)=O)=C(O)[C@@]3(O)C(=O)C1=C2O | inconclusive: 23 µM |  |
| CC(C)(C)C1(CCc2ccc(Cl)cc2)CO1 (stereo not drawn) | inconclusive: 46.1 µM |  |
| NC(=O)CCCCC(N)=O | inconclusive: 46.2 µM |  |
| CCN(CC)CCOC(=O)C(Cc1cccc2ccccc12)CC1CCCO1 (stereo not drawn) |  | inactive |
